Data source: PubChem BioAssay AID1159578 (Peter MacCallum Cancer Centre, 2015)
Test: 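Genome-wide hunt for genes controlling movement of lymphatic endothelial cells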 (primary screen). Cells: human lymphatic endothelial cells. Reagents: siRNA pool against human genes, 40 nM. Timing: 48 h after transfection. Detection: 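Cells stained with dye and imaged after a scratch; covered wound area and nuclei counted, duplicates averaged, migration set against mock wells and turned into a robust z-score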. Reading the numbers: migration robust z-score: higher = faster migration into the scratch; migration relative to mock: higher = more scratch area covered than mock; nuclei per well: higher = more cells in the well. Call rule: 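Migration changed when robust z exceeds 2 or falls below -2 and mean nuclei number is at least 3300; otherwise not called changed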. Calls: active = migration changed; inactive = no migration change, or too few cells.
Here is an unselected part of about 18,000 reagents. Over the whole deposit, about 1,030 (5.7%) were called active. 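Inactive calls also include pools with fewer than 3300 nuclei, whose migration was not assessed.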 Raw values vary from plate to plate and are shown uncorrected.

target | migration robust z-score | migration class with cell-count check | migration relative to mock | nuclei per well, duplicate mean | activity call
CRYBG1 (GeneID 202) | 0.08 | migration z between -2 and 2; enough cells | 0.9 | 6208 | inactive
FLYWCH2 (GeneID 114984) | -0.73 | migration z between -2 and 2; enough cells | 0.7 | 4386 | inactive
ZNF575 (GeneID 284346) | 0.56 | migration z between -2 and 2; enough cells | 1.03 | 5634 | inactive
KIR2DL5B (GeneID 553128) | -0.57 | migration z between -2 and 2; enough cells | 0.74 | 5748 | inactive
TPPP3 (GeneID 51673) | -1.32 | migration z between -2 and 2; enough cells | 0.55 | 5868 | inactive
TPD52L1 (GeneID 7164) | 3.25 | migration z above 2; enough cells | 1.73 | 6982 | active
ADGRE5 (GeneID 976) | -1.43 | migration z between -2 and 2; enough cells | 0.53 | 6292 | inactive
SNAI1 (GeneID 6615) | -2.34 | migration z below -2; enough cells | 0.28 | 3792 | active
ATIC (GeneID 471) | 1.17 | migration z between -2 and 2; enough cells | 1.03 | 5930 | inactive
CHST4 (GeneID 10164) | -1.85 | migration z between -2 and 2; enough cells | 0.45 | 3714 | inactive
DMXL2 (GeneID 23312) | -0.94 | migration z between -2 and 2; enough cells | 0.64 | 6778 | inactive
PRSS50 (GeneID 29122) | -0.68 | migration z between -2 and 2; enough cells | 0.68 | 5216 | inactive
PGS1 (GeneID 9489) | -0.57 | migration z between -2 and 2; enough cells | 0.7 | 5906 | inactive

Continued, starting with the last 3 of the part before.
target | migration robust z-score | migration class with cell-count check | migration relative to mock | nuclei per well, duplicate mean | activity call
DMXL2 (GeneID 23312) | -0.94 | migration z between -2 and 2; enough cells | 0.64 | 6778 | inactive
PRSS50 (GeneID 29122) | -0.68 | migration z between -2 and 2; enough cells | 0.68 | 5216 | inactive
PGS1 (GeneID 9489) | -0.57 | migration z between -2 and 2; enough cells | 0.7 | 5906 | inactive
NAPRT (GeneID 93100) | 2.1 | migration z above 2; enough cells | 1.43 | 6957 | active
DLGAP3 (GeneID 58512) | 0.92 | migration z between -2 and 2; enough cells | 1.12 | 6267 | inactive
TMIE (GeneID 259236) | -0.22 | migration z between -2 and 2; enough cells | 0.82 | 5329 | inactive
ENO1 (GeneID 2023) | 0.06 | migration z between -2 and 2; enough cells | 0.82 | 6053 | inactive
CUZD1 (GeneID 50624) | 0.46 | migration z between -2 and 2; enough cells | 1 | 5800 | inactive
CYBC1 (GeneID 79415) | 0.38 | migration z between -2 and 2; enough cells | 0.98 | 7486 | inactive
CEP89 (GeneID 84902) | 0.3 | migration z between -2 and 2; enough cells | 0.97 | 4972 | inactive
C11orf71 (GeneID 54494) | -1.25 | migration z between -2 and 2; enough cells | 0.56 | 6143 | inactive
ZNF442 (GeneID 79973) | 0.92 | migration z between -2 and 2; enough cells | 1.12 | 5381 | inactive
C8orf74 (GeneID 203076) | -1.14 | migration z between -2 and 2; enough cells | 0.58 | 3336 | inactive
